# Measured values as given in PubChem BioAssay AID651640 (Broad Institute, 2012).
# “And” between values parts separate entries of the source, which are not always exact repeats. Identical values can stand only once. About 6,000 (1.7%) of roughly 350,000 compounds were called active. Inconclusive means that the source gave no clear call. Such entries were picked first, then a sample of the others. No stated cut-off is given here; in the data, active means CPE inhibition above about 20% (passing the limit was not always enough); inconclusive means no clear call, values can overlap the other calls; tested in BHK-21 cells. Where a structure was tested more than once in an assay, its records may differ in their call.
# Assay: protection of cells from dengue 2 killing – plate reader, single concentration, primary screen (AID 651640);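 further: 0% = median of neutral control wells and 100% = median of positive control wells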
# Conditions: DENV2-infected cells, cytopathic effect rescue, at 9.99 µM, stronger effect = higher value
row,Structure (SMILES),CPE inhibition
1,C[C@@H]1CCCCO[C@H](CN(C)S(C)(=O)=O)[C@H](C)CN([C@H](C)CO)C(=O)c2cc(N(C)C)ccc2O1,inconclusive: 51.7%
2,Cc1cccc(-c2ccc(C3[C@@H]4CN(C(=O)C5CCCCC5)C[C@H]3N4)cc2)c1 (stereo partly drawn),inactive: -23.5% and inactive: -3.37%
3,O=C(C[C@H]1C[C@@H]2c3cc(NC(=O)Nc4ccccc4)ccc3O[C@@H]2[C@H](CO)O1)NCC(F)(F)F,inactive: 6.59%
4,CCC1CN(C(=O)N2CCC(C(=O)NCc3ccccc3C)CC2)c2ccccc2O1 (stereo not drawn),inactive: -3.11%
5,COc1ccc(S(=O)(=O)Nc2cc3c4c(c2)CCN4C(=O)CC3)cc1,active: 59.9%
6,C[C@@H]1CN([C@@H](C)CO)S(=O)(=O)c2ccc(C3=CCCCC3)cc2O[C@H]1CN(C)S(=O)(=O)c1ccc(F)cc1,inconclusive: 31.6%
7,COc1ccccc1NS(=O)(=O)c1ccc(C(=O)N2CCN(c3ccccc3)CC2)cc1,inconclusive: 31.9%
8,O=C(CSc1ccc2nnc(-c3ccccn3)n2n1)Nc1ccccc1,active: 71.5%
9,C/C=C/c1ccc(C2[C@@H]3CN(C(=O)Nc4ccc5c(c4)OCO5)C[C@H]2N3)cc1 (stereo partly drawn),active: 27.2%
10,CCc1cc2c(C)cc(C)cc2nc1SCC(=O)Nc1cc(C)on1,inconclusive: 53.6%
11,C=CCNc1nc2c(c(=O)[nH]c(=O)n2C)n1CCCc1ccccc1,inconclusive: 62.4%
12,COc1ccc(/C=N/NC(=O)c2ccc3c(c2)OCCO3)c(OC)c1,inconclusive: 39.2%
13,C=CC[C@@H](CC(=O)N[C@H](CO)Cc1ccccc1)C(=O)N[C@@H](C)COC(=O)[C@@H](CC=C)Cc1ccc(F)cc1,active: 40.6%
14,COc1ccc(NC(=O)N(C)C[C@@H]2Oc3ccc(NS(=O)(=O)c4c(C)noc4C)cc3C(=O)N([C@@H](C)CO)C[C@@H]2C)cc1,active: 26.9%
15,O=C(Oc1cccc(F)c1)c1ccc2c(=O)n3c(nc2c1)CCC3,inconclusive: 30.9%
16,C[C@@H]1CN([C@H](C)CO)C(=O)Cc2cc(NS(=O)(=O)c3ccccc3)ccc2O[C@@H]1CN(C)C(=O)Nc1ccccc1,inactive: 12.4%
17,OC(COC(c1ccc(F)cc1)c1ccc(F)cc1)CN1CCCC1 (stereo not drawn),active: 40.5%
18,CCCNC(=O)N1CC2(CN(CC3CCCC3)C2)c2c(n(C)c3cc(OC)ccc23)[C@H]1CO,inactive: -11.3%
19,Cc1ccc(S(=O)(=O)Nc2cccc3c2O[C@@H](CN(C)C(=O)NC(C)C)[C@@H](C)CN([C@H](C)CO)C3=O)cc1,active: 43.3%
20,C[C@@H]1CN([C@@H](C)CO)C(=O)c2cc(N(C)C)ccc2O[C@@H](C)CCCCO[C@H]1CN(C)C(=O)c1ccccc1,inactive: 8.51%
21,Cc1nc(SCc2cccc(C(=O)O)c2)nc2c1CCCC2,inconclusive: 47.3%
22,O=C(C[C@@H]1C[C@H]2c3cc(NS(=O)(=O)c4ccc(F)cc4)ccc3O[C@H]2[C@H](CO)O1)NCCN1CCCCC1,inactive: 1.8%
23,CC1CCN(c2ccc(NC(=O)c3ccc([N+](=O)[O-])o3)cc2)CC1,inactive: -3.48%
24,Cc1ccn2c(-c3csc(Nc4ccc(C(=O)O)cc4)n3)c(C)nc2c1,inconclusive: 21.6%
25,CC(C)(C)[C@H]1COC(=O)CCC/C=C/C[C@H](CC(=O)NCCO)C(=O)N1,inconclusive: 47.2%

row,Structure (SMILES),CPE inhibition
1,CCS(=O)(=O)Nc1ccc2c(c1)C(=O)N(C)C[C@H](OC)[C@H](C)CN(C(C)=O)[C@H](C)CO2,active: 23.7%
2,Cc1noc(C)c1NC(=O)N(C)C[C@H]1OCc2cnnn2CCCC(=O)N([C@H](C)CO)C[C@@H]1C,inconclusive: 30.1%
3,O=C(c1ccc(F)cc1)N1CCC(C(=O)N2CCCc3ccccc32)CC1,active: 31.1%
4,COc1ccc(C#Cc2ccc([C@@H]3[C@H]4CN(C(=O)C5CCOCC5)CC(=O)N4[C@H]3CO)cc2)cc1,inconclusive: 21.5%
5,Cc1cccc(S(=O)(=O)N2CCCCN3[C@H](CO)[C@H](c4ccc(-c5ccncc5)cc4)[C@@H]3C2)c1,active: 32.5%
6,CCn1c(=O)c2cc(C(=O)N3CCN(C)CC3)sc2c2ccccc21,inconclusive: 23.9%
7,O=c1c2ccccc2sn1-c1ccc(F)cc1,inactive: -2.6%
8,CC1(Oc2ccccc2-c2ccno2)CCN(Cc2csc3ccccc23)C1 (stereo not drawn),inconclusive: 39.9%
9,COC(=O)c1c(CCl)noc1C(=O)NCC1CCCO1 (stereo not drawn),active: 32.9%
10,C[C@@H]1CCCCO[C@H](CN(C)C)[C@@H](C)CN([C@H](C)CO)C(=O)c2cc(NS(=O)(=O)c3cccs3)ccc2O1,inactive: -10.2%
11,C[C@@H]1CN([C@H](C)CO)C(=O)c2cc(NC(=O)Cn3cnnn3)ccc2O[C@@H]1CN(C)C,inactive: -6.33%
12,CCN(CC)CCN(C(=O)c1ccc2c(c1)OCCO2)c1nc2cc(C)cc(C)c2s1,inconclusive: 25%
13,CCOc1ccc(CN(C)CC(=O)Nc2cc(C)c(C)cc2[N+](=O)[O-])cc1,inconclusive: 34.2%
14,CCCC#Cc1ccc([C@@H]2[C@@H](CO)N3C(=O)CN(S(=O)(=O)Cc4ccccc4)C[C@@H]23)cc1,inconclusive: 33.6%
15,COc1ccc(-c2cc(NC=O)c3ncc(-c4ccc(OC)c(OC)c4)n3c2)cc1,inconclusive: 25.6%
16,C[C@@H]1CN([C@@H](C)CO)C(=O)c2cc(NC(=O)Nc3ccc(F)cc3)ccc2O[C@H]1CN(C)C,active: 26.6%
17,OCCC1CN(CC2CCCCC2)CCN1C1CCCC1 (stereo not drawn),inconclusive: 20.1%
18,Cc1ccc(C)c2[nH]c(=O)c(CCNC(=O)CC(C)C)cc12,inconclusive: 23.7%
19,OC[C@H]1[C@H](c2ccc(-c3cccnc3)cc2)[C@@H]2CN(CC3CC3)CCCCN12,inconclusive: 26.1%
20,COc1ccc(O)c(/C=N/NC(=O)CN2CCS(=O)(=O)CC2)c1,active: 54.2%
21,N#C[C@H]1[C@H](c2ccc(C#CC3CCCC3)cc2)[C@H](CO)N1C(=O)Cc1ccccn1,inconclusive: 44.9%
22,CC(c1ccccc1)c1nnc(NC(=O)Nc2ccccc2)s1 (stereo not drawn),inconclusive: 26.4%
23,CC(C)C[C@@H](CO)N1CCN(Cc2cccc(C#N)c2)CCC1=O,active: 20.5%
24,C[C@@H]1CN([C@H](C)CO)C(=O)c2cccc(N(C)C)c2O[C@H]1CN(C)S(=O)(=O)c1ccc(Cl)cc1,inconclusive: 41.5%
25,COc1ccccc1-c1noc2c1C(=O)N(Cc1cn(-c3ccccc3)nn1)CC2,inconclusive: 37.6%

row,Structure (SMILES),CPE inhibition
1,C[C@@H]1CN([C@H](C)CO)C(=O)c2c(c3ccccc3n2C)-c2ccccc2CO[C@H]1CN(C)S(=O)(=O)c1ccc(Cl)cc1,inactive: -8.78%
2,CSCCC(NS(=O)(=O)c1ccccc1F)C(=O)NCC(C)(C)N1CCOCC1 (stereo not drawn),inactive: -3.65%
3,C[C@@H]1CN([C@H](C)CO)C(=O)c2cc(C#CCN(C)C)cnc2O[C@H]1CN(C)C(=O)NC1CCCCC1,inconclusive: 28.2%
4,C/C=C/c1ccc([C@H]2[C@@H](CO)N(CCC)[C@@H]2CN(CC)C(=O)c2ccccn2)cc1,inactive: -6.39%
5,Cc1cn([C@H]2C[C@H](O)[C@@H](CNCc3ccc(CN(C)S(C)(=O)=O)o3)O2)c(=O)[nH]c1=O,inconclusive: 22.5%
6,CCN1C[C@@H]2[C@@H]3C(=O)N(C)C(=O)[C@@H]3[C@](C)(C1=O)N2C(=O)c1ccc(C)cc1,inconclusive: 27.8%
7,COc1ccc(S(=O)(=O)N[C@H]2CC[C@@H](CC(=O)NCc3ccccc3F)O[C@@H]2CO)cc1,inconclusive: 35.3%
8,CCCNC(=O)C[C@@H]1C[C@H]2c3cc(NC(=O)NC4CCCCC4)ccc3O[C@H]2[C@@H](CO)O1,inactive: 1.69%
9,COc1ccc(CN(CCNC(=O)CCCCC(=O)NCCN(Cc2ccc(OC)cc2)C(C)C)C(C)C)cc1,active: 30.2%
10,C[C@H]1CN([C@@H](C)CO)C(=O)c2cc(C#CCN(C)C)cnc2O[C@@H]1CN(C)Cc1ccccc1F,inconclusive: 25%
11,Cc1onc(C(=O)N2CCN(C(c3ccccc3)c3ccccc3)CC2)c1[N+](=O)[O-],inactive: 19.2%
12,Cc1ccc(C(=O)N(CC(C)C)c2c(N)n(Cc3ccccc3)c(=O)[nH]c2=O)o1,inconclusive: 26.9%
13,Cc1ccccc1Nc1nc(N)nc(CSc2nnc(C)n2C)n1,inconclusive: 58.4%
14,CN(Cc1ccccc1)S(=O)(=O)c1ccc(NC(=S)NC(=O)C(C)(C)C)cc1,inactive: -0.733%
15,COc1ccc(-c2nc(NC(=O)c3ccccc3)sc2-c2ccc([N+](=O)[O-])cc2)cc1,inconclusive: 42%
16,Cc1cc(NC(=O)c2cccc(S(=O)(=O)N3CCCCC3)c2)no1,inconclusive: 27.6%
17,CCCN1C[C@H](C)[C@H](OC)CN(C)C(=O)c2ccc(NC(=O)Nc3cccc(F)c3)cc2OC[C@H]1C,active: 24.6%
18,Cc1ccccc1NC(=O)CN1C(=O)S/C(=C\c2ccc(-c3cc(C(=O)O)ccc3C)o2)C1=O,inactive: 12.1%
19,COc1cc(C=NNC(=O)c2ccc(NS(=O)(=O)c3cccs3)cc2)cc(Br)c1O,inactive: -1.23%
20,CC1=C(C(=O)N(C(C)C)C(C)C)CC(CC(=O)NCCCN(C)C)C(=O)N1Cc1ccc(F)cc1 (stereo not drawn),inconclusive: 67.8%
21,Cc1ccc(S(=O)(=O)N(C)C[C@@H]2Oc3ccc(NC(=O)Nc4ccc(C(F)(F)F)cc4)cc3C(=O)N([C@H](C)CO)C[C@H]2C)cc1,inactive: -9.05%
22,Cc1ccc(C(=O)n2cnc3ccccc32)cc1C,inactive: -7.51%
23,CC[C@@H](NC(=O)[C@@H](Cc1ccccc1)NC(=O)CC[C@H]1O[C@@H](n2ccc(=O)[nH]c2=O)[C@H](O)[C@@H]1O)c1ccccc1,inconclusive: 28.8%
